For one molecule, binding results are on record in patent US20240299504A1, “COMPOSITIONS AND METHODS FOR TREATING ALZHEIMERS DISEASE” (priority 2023, published 2024).

Protein sequences, listed by entry. Tags and fused reporters are not part of them. Residues count along the entry.
UniProt P41593, residues 27-591: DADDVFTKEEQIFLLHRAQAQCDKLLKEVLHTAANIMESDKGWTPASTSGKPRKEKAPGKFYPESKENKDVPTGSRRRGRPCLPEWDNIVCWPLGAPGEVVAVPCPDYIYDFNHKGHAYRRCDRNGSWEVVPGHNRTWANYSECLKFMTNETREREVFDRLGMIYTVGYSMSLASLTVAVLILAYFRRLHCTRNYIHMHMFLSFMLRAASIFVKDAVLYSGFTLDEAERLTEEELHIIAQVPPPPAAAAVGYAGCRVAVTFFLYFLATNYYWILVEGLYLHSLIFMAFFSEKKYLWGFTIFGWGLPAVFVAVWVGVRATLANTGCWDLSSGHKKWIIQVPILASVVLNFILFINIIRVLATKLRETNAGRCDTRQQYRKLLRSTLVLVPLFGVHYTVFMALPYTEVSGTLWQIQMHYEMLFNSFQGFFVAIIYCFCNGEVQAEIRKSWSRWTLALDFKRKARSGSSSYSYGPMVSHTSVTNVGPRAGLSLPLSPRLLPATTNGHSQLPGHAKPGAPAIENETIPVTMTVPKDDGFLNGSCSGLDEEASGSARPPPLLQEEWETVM

Results are given in words; binding and its absence hold for the method and conditions named. Some entries that bind do so weakly or less than the wild type.

The target in the experiment is PTH receptor (PTH1R), parathyroid hormone type 1 receptor, on mouse astrocytes (mouse) (UniProt P41593). Kind of experiment: in vivo tail-vein injection of Biotin-PTH1-34, anti-biotin immunofluorescence of brain sections co-stained with cell markers; PTH1R expression in astrocytes by RNAscope and Western blot. On the technique in general: Immunoblotting shows a protein as a band on a membrane.

On to SVSEIQLMHNLGKHLNSMERVEWLRKKLQDVHNF (peptide, UniProt P01270 32-65, looked up, biotin label (position not given)) [Biotin-labeled PTH1-34 (ANASPEC, cat #AS-20690)], for which the binding entry was “binds”.
